## Primary screen of a compound library

Results are given as percent effect. How 0% and 100% were set is not recorded. Most values in the screen are low, and negative values occur. This is an unselected part of the compounds tested. Two or more numbers in one place are separate tests of the same structure; such repeats can differ widely.

A: 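Phenotypic screen: M. tuberculosis growth, cholesterol and DPPC medium, 4 days; the read-out is not stated. Compounds at 50 µM. Direction is inferred from retests: higher values go with more growth inhibition. Of about 69,000 compounds tested this way, about 370 (0.54%) reached 50% or more in at least one test.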
B: 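Whole-cell growth test on Mycobacterium tuberculosis, read after 3 days in glucose-containing 7H9 medium; the read-out is not stated. Concentration: 50 µM. Direction is inferred from retests: higher values go with more growth inhibition. Of about 69,000 compounds tested this way, about 760 (1.1%) reached 50% or more in at least one test.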

With CC(C)CNC(=O)CNC(=O)NC(C)COc1ccccc1F (stereo not given) the screen gave A: -2.561%; B: -1.523%. CCc1noc(C(C)N(C)CC(=O)Nc2ccc(Br)cc2C)n1 (stereo not given) read A: -0.9687%; B: 23.5%. COc1cc(N2CCC3(CC2)CCN(c2cccnc2)C3=O)ncn1.O=C(O)C(F)(F)F read A: -1.615%; B: 9.579%. [H][C@]12CC[C@]([H])(CN(C(=O)c3ccccn3)C1)N(C(=O)CCC(F)(F)F)C2 gave A: -5.393% and -23.71%; B: -35.19%. For CCS(=O)(=O)N1CCc2nnc(CN(C)C(C)C)n2CC1 the result was A: -8.786%; B: -24.69% and -8.52%. Cc1nc(C)c(COc2ccc(S(=O)(=O)N(C)C)cc2)s1 gave A: 19.71%; B: 3.357%.

Result for Cc1cc(C)c2[nH]c(C)c(CC(=O)N(C)CCN(C)C)c2c1.O=C(O)CC(O)(CC(=O)O)C(=O)O was A: 21.03% and 2.102%; B: 30%. O=C(CCN1CCCCO1)NCc1cn2c(n1)SCC2 read A: -6.166%; B: 0.501%. Result for O=c1[nH]c(-c2ccc(F)cc2)nc2c1CCNC2 was A: -16.68%; B: -20.62%. Result for COCCN1CCC(NCc2ccc(F)cc2F)C1 (stereo not given) was A: -28.53%; B: -81.05%. For O=C(Cn1cnnn1)NC(c1ccccc1)c1ccc2c(c1)CCCO2 (stereo not given) the result was A: -24.07%; B: -19.11% and 1.957%. With Cn1cnc(S(=O)(=O)NCC2(O)CCc3ccccc3C2)c1 (stereo not given) the screen gave A: 16.43%; B: 18.39%.

Nc1ncc(-c2ccc(NC(=O)[C@@H]3CCCCN3)cc2)cn1 gave A: -34.34%; B: -9.534%. CCCC(C)(C)NC(=O)c1cnc(CC)s1 read A: 25.29%; B: 28.1% and 44.86%. For O=C1NC2(Cc3ccccc31)CN(CC1CCOCC1)C2 the result was A: -18.53%; B: -9.31%. With O=C(CCc1cc(Cl)no1)N1CCC(c2cc3ncccc3cn2)CC1 the screen gave A: -16.28%; B: 18.28%. With c1cnn(CCN2CCOC(Cn3cccn3)C2)c1 (stereo not given) the screen gave A: -39.09%; B: -26.42%. With N#Cc1cccc(C(=O)N2CCc3c(COCC4CC4)cncc3C2)c1.O=C(O)C(F)(F)F the screen gave A: 7.204%; B: 12.11% and -3.481%.

Result for COc1ccccc1CN(CC1CCCO1)C(=O)c1csnn1 (stereo not given) was A: 13.43%; B: 5.016% and 6.999%. COCCOc1ccccc1CNCC1COC2(CCCC2)O1 (stereo not given) gave A: 4.04%; B: 9.637%. CC(=O)Nc1c(C)noc1/C=C\c1ccc(S(=O)(=O)N2CCCC2)cc1 read A: -20.48%; B: -9.633%. Cc1ccc2c(n1)N(Cc1cccnc1)CCN(C(=O)C1CCC1)C2.O=C(O)C(F)(F)F.O=C(O)C(F)(F)F gave A: -18.07%; B: -12.42%. For O=C(CS(=O)(=O)Cc1cc(Cl)c2c(c1)OCCCO2)NCC1CC1 the result was A: -20.48%; B: -10.15%. CS(=O)(=O)Cc1cc(F)ccc1NCc1nnsc1Cl read A: -17.05%; B: -11.2%.

Result for Cc1cc(C)n(CC2CCCCN2C(=O)c2sccc2C#N)n1 (stereo not given) was A: -6.45% and -7.176%; B: -5.201% and 15.58%. Result for [H][C@]12CN(C(=O)c3cnn(C)c3)CC[C@@]1(O)CCN(C(=O)C1CCC1)C2 was A: -15.74% and -2.413%; B: -11.08% and -4.655%. Result for CCc1ncc2c(n1)CN(C(=O)c1c(C)[nH]c3c1C(=O)CCC3)C2 was A: -17.62%; B: -13.66%. Result for CC(=O)c1cccc(NC(=O)NCCOCC2CC2)c1 was A: 4.513%; B: 37.8%. With CN1C[C@H](O)[C@]2(CCN(C(=O)NCc3ccccc3)C2)S1(=O)=O the screen gave A: 2.088%; B: 19.25%. CN(CCc1ccccc1)c1cnn(CC2COCCO2)c(=O)c1 (stereo not given) read A: -5.774%; B: -1.174%.

For Cn1cc(CN2CCn3cc(Cn4cccn4)nc3C2)cn1.O=C(O)C(F)(F)F the result was A: -32.95%; B: 3.964%. Result for CN1CCCCc2c1nc1c(c2N)CCC1.O=C(O)c1cc([N+](=O)[O-])ccc1Cl was A: 20.68%; B: 21.72% and 3.357%. With O=C1CSC(c2ccsc2)c2c(n(C3CCCC3)[nH]c2=O)N1 (stereo not given) the screen gave A: -11.61%; B: 11.44%. With Cc1ccc(NC2CCN(C(=O)CCc3ccsc3)CC2)nn1 the screen gave A: -3.278%; B: 3.326%. Cl.Cl.O=C(NCc1cncc2c1CCN(Cc1ccc(F)cc1)C2)C1CC1 read A: -15.71%; B: -5.055% and 1.032%. Result for O=C(NCc1ccnc(-n2cccn2)c1)C1CC(=O)N(CC2CC2)C1 (stereo not given) was A: 8.024%; B: -20.57%.

CC(C)=CCN1Cc2nnc(C3CCOCC3)n2C(Cc2c[nH]cn2)C1 (stereo not given) gave A: -10.03%; B: 4.142%. Cc1ccc(C(=O)NCC(C)CN2CCCC2=O)c(=O)[nH]1 (stereo not given) read A: -17.35%; B: -7.698%. Result for CN(Cc1ccncc1)C(=O)NCc1cn(-c2ccccc2)nn1 was A: 3.637%; B: -12.4%. CC(C)C(NC(=O)c1ccco1)C(=O)N1CCC2(CC1)OCCO2 (stereo not given) read A: -32.02%; B: -10.63% and 1.05%. For CN(Cc1ccccn1)C1CCCN(c2cccnn2)C1 (stereo not given) the result was A: -30.09%; B: -45.89%. With O=c1c2cccc(F)c2ncn1CCN1CCNCC1 the screen gave A: -25.98%; B: 1.004%.

With COCc1nn(Cc2ccc(Cl)s2)c(=O)o1 the screen gave A: 37.94%; B: 37.31%. With CCc1nc(NC(=O)N(C)Cc2ccoc2)nn1C the screen gave A: 20.28% and -3.84%; B: 22.05%.

Measurements from “University of Dundee, Small-Polar-MMV Screening Library” (2021), ChEMBL document CHEMBL3988442.